For at least one entry, the source does not settle the construct or the ends of the probe. For part of these data: The direction of at least one scale is not stated here.
Key:
MBD2(150-260) (human) = MBD2(150-260) (human) (UniProt Q9UBB5); assay: fluorescence polarization; details: 150 mM NaCl; 5-methyl-C at position 9 of strand 1 (central CpG); complement mC at position 8 implied, not given; FP: 10 mM HEPES pH 7.5, 50 or 150 mM NaCl, 3 mM MgCl2, 0.1 mM EDTA, 1 mM DTT, 0.02% azide; temperature not stated; recombinant protein; residues 150-260; label: 3' FAM on reverse strand
MBD2MBD (human) = MBD2MBD (human) (UniProt Q9UBB5); assay: fluorescence polarization; details: 150 mM NaCl; 5-methyl-C at position 9 of strand 1 (central CpG); complement mC at position 8 implied, not given; FP: 10 mM HEPES pH 7.5, 50 or 150 mM NaCl, 3 mM MgCl2, 0.1 mM EDTA, 1 mM DTT, 0.02% azide; temperature not stated; recombinant protein; residues 150-214; label: 3' FAM on reverse strand
MBD2FLsc (human) = MBD2FLsc (human) (UniProt Q9UBB5); assay: NMR 15N-HSQC; details: 2H,13C,15N protein, thioredoxin removal not stated for this construct, 10% molar excess DNA; 5-methyl-C at position 9 of strand 1 (central CpG); complement mC at position 8 implied, not given; recombinant protein

Sequences of proteins named here, by UniProt entry; tags and fusion partners are left off. Residues count along the entry.
UniProt Q9UBB5, 150-260: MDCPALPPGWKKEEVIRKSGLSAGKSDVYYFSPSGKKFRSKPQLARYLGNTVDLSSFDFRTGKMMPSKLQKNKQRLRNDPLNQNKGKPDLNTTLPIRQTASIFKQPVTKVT
UniProt Q9UBB5, 150-214: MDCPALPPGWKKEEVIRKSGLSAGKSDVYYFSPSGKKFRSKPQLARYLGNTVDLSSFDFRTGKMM

Sequence | binding signal (fold affinity vs 50 mM NaCl) (MBD2(150-260) (human)) | binding signal (fold affinity vs 50 mM NaCl) (MBD2MBD (human)) | binding result (MBD2FLsc (human))
GAGGCGCTCGGCGGCAG (double strand) [17 bp central mCpG, FP] | 0.1 | 0.1 | –
GAGGCGCTCGGCGGCAG (double strand) [17 bp central mCpG, NMR] | – | – | binds
